These are yes or no findings as the source states them, for the method shown. Some entries that bind do so weakly or less than the wild type.
Biological target: T1, yeast Trm6 (subunit of the Trm6/Trm61 heterodimer) (S. cerevisiae) (UniProt P41814)
T1 sequence: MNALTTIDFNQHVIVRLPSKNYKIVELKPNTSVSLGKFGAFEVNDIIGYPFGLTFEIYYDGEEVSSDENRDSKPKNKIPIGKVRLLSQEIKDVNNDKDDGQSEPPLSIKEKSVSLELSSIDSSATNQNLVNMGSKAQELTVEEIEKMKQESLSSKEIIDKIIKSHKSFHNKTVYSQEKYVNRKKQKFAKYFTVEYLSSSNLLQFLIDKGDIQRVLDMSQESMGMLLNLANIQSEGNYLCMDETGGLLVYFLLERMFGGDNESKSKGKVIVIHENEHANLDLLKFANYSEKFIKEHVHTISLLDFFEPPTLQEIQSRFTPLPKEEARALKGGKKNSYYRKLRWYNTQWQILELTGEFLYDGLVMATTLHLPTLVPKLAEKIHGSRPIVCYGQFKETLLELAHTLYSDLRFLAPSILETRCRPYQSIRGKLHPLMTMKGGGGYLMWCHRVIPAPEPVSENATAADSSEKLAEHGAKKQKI
Test: co-purification (Ni-NTA, then hydrophobic and/or size exclusion chromatography); Trm6 and Trm61 co-expressed in E. coli from pETDuet-1, His6 tag on Trm6 only; lysate supernatant loaded on a Ni-NTA column, imidazole gradient, further chromatography at 4°C

Sequences of proteins named here, by UniProt entry; tags and fusion partners are left off.
UniProt P46959: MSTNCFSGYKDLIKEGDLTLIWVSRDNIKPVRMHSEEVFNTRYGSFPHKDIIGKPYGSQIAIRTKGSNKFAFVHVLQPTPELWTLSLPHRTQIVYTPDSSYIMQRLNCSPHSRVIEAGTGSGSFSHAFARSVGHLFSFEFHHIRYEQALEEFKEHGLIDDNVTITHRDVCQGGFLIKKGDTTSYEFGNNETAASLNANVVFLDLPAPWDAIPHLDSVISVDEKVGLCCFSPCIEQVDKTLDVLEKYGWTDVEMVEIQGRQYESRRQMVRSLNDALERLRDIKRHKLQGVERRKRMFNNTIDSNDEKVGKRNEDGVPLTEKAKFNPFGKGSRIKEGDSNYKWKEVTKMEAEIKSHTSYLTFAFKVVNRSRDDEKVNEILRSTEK

binding: binds
Substance: yeast Trm61 (subunit of the Trm6/Trm61 heterodimer) (from UniProt P46959 1-383) (enzyme)

— article PMC10602860
